Values quoted from earlier work as cited in patent publication US20080131475A1, “Methods of Use of Dual Ppar Agonist Compounds and Drug Delivery Devices Containing Such Compounds” (priority 2005, published 2008).
At least one compound was matched to its structure with a doubt left.

Tested on: intimal hyperplasia following balloon injury
Conditions: fatty and lean Zucker rats; cited from earlier work

| Structure (SMILES) | intimal hyperplasia following balloon injury |
| --- | --- |
| CC(C)OC(=O)C(C)(C)Oc1ccc(C(=O)c2ccc(Cl)cc2)cc1 [fenofibrate] | but not |
| CN(CCOc1ccc(CC2SC(=O)NC2=O)cc1)c1ccccn1 (centres unmarked) [rosiglitazone] | decrease intimal hyperplasia |
